Measured values from PMC3202633.
No constants are given. Whether binding was seen depends on the method and setting. Binding seen in cells or lysates may run through a third protein. Some results given as binding are weak or reduced against the parent protein; the word gives no strength. For part of these data: Tags and fused reporters may be left off the sequences shown.

Sequences of proteins named here, by UniProt entry; tags and fusion partners are left off.
UniProt P05556: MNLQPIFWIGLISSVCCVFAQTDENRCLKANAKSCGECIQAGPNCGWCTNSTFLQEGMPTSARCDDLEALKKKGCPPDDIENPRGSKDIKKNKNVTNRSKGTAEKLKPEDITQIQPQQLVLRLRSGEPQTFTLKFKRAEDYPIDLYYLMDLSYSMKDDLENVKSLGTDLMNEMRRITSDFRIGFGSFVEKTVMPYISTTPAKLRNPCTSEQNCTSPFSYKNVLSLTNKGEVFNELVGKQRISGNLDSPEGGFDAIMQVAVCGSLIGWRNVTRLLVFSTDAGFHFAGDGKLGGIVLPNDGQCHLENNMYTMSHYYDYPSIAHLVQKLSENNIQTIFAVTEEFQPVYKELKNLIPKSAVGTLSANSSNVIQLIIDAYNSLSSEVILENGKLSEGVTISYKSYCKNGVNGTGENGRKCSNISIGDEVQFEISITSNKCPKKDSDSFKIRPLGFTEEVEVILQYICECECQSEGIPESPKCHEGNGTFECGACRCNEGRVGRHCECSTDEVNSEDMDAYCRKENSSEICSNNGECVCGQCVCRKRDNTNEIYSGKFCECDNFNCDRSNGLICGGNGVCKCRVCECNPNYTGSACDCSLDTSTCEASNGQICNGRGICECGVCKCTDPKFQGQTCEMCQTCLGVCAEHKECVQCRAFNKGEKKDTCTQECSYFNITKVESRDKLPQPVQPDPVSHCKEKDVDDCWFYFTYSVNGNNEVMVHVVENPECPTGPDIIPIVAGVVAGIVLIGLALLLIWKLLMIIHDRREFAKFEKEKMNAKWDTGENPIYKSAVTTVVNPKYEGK
UniProt Q03135: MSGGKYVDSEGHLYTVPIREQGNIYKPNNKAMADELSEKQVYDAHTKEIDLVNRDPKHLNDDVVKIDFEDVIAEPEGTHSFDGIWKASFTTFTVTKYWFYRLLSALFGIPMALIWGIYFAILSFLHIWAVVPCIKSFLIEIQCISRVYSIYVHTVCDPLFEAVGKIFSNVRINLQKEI
UniProt P84095: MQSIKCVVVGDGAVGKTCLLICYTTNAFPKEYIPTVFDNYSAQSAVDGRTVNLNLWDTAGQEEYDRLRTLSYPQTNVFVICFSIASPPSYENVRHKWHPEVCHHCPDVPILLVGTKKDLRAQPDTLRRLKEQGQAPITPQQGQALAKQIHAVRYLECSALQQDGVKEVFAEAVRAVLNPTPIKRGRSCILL

Assays:
[1] = target: β1-integrin (UniProt P05556); test: co-IP; paramagnetic beads coated with 200 μg/ml antibody (12G10: active β1-integrin; mAb13: inactive β1-integrin; OKT9: transferrin receptor) incubated with fibroblasts expressing GFP-RhoG for 20 min at room temperature; complexes stabilised with DTBP membrane-permeable cross-linker; cells lysed by sonication; quantitative western blotting
[2] = target: T1, GST-ELMO2 (amino acids 1–362) (UniProt Q96JJ3); test: pull-down; effector pull-down with GST-ELMO2 (amino acids 1–362) as bait from fibroblasts spread on 50K and stimulated with H/0 over a time course; quantitative western blotting; only the target purified
T1 sequence: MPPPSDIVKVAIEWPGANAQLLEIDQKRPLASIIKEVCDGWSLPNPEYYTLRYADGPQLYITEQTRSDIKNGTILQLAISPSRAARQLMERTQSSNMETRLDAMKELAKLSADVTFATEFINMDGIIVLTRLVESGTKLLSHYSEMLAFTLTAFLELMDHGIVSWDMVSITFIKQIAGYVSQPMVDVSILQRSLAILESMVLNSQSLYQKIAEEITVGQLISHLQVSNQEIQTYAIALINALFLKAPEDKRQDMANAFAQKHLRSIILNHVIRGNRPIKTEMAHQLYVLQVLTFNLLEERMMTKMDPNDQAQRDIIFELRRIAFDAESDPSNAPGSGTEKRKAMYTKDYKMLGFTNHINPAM

Substance | binding [1] | binding [2]
caveolin (from UniProt Q03135 1-178) | binds | 
Active RhoG (from UniProt P84095 1-191) |  | binds
GFP-RhoG (from UniProt P84095 1-191) | binds | 
